PubChem BioAssay AID1259405, NCATS | 2018
Test: 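Knock-downs that lift recombinant protein yield in hamster ovary cells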 (primary screen). System: Chinese hamster CHO-K1 ovary cells with stable secreted eGFP expression. Reagents: single siRNA against mouse genes, 0.8 pmol siRNA per well (2 µl of 400 nM stock). Timing: 3 days. Detection: 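Per-well intracellular GFP measured by laser scanning cytometry, plus viability from ATP luminescence, each relative to plate median of non-targeting control wells, in %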. Reading the numbers: GFP, % of control: higher = more GFP per well, higher productivity; viability (ATP), % of control: higher = more viable cells (more ATP). Active means: 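Called active when intracellular GFP, relative to negative control, is at or above 120%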.
Shown is a random part of about 50,000 deposited reagents. About 4,000 of all reagents (8%) were called active. 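Mouse siRNA library applied to hamster cells; one well for each siRNA.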 The numbers tell different reagents against one gene apart.

{"gene": "Atxn2 (ataxin 2)", "siRNA no.": 1, "GFP, % of control": 140, "viability (ATP), % of control": 120, "Call": "active"}
{"gene": "Atxn2 (ataxin 2)", "siRNA no.": 2, "GFP, % of control": 82.1, "viability (ATP), % of control": 76.6, "Call": "inactive"}
{"gene": "Supv3l1 (suppressor of var1, 3-like 1 (S. cerevisiae))", "siRNA no.": 1, "GFP, % of control": 82.8, "viability (ATP), % of control": 88.4, "Call": "inactive"}
{"gene": "Supv3l1 (suppressor of var1, 3-like 1 (S. cerevisiae))", "siRNA no.": 2, "GFP, % of control": 72.9, "viability (ATP), % of control": 61.1, "Call": "inactive"}
{"gene": "Supv3l1 (suppressor of var1, 3-like 1 (S. cerevisiae))", "siRNA no.": 3, "GFP, % of control": 94.1, "viability (ATP), % of control": 83, "Call": "inactive"}
{"gene": "Mrgprb4 (MAS-related GPR, member B4)", "siRNA no.": 1, "GFP, % of control": 55, "viability (ATP), % of control": 44.7, "Call": "inactive"}
{"gene": "Mrgprb4 (MAS-related GPR, member B4)", "siRNA no.": 2, "GFP, % of control": 51.6, "viability (ATP), % of control": 66.9, "Call": "inactive"}
{"gene": "Mrgprb4 (MAS-related GPR, member B4)", "siRNA no.": 3, "GFP, % of control": 65.7, "viability (ATP), % of control": 75.7, "Call": "inactive"}
{"gene": "Mgat4b (mannoside acetylglucosaminyltransferase 4, isoenzyme B)", "siRNA no.": 1, "GFP, % of control": 95.6, "viability (ATP), % of control": 67.8, "Call": "inactive"}
{"gene": "Mgat4b (mannoside acetylglucosaminyltransferase 4, isoenzyme B)", "siRNA no.": 2, "GFP, % of control": 113, "viability (ATP), % of control": 76, "Call": "inactive"}
{"gene": "Mgat4b (mannoside acetylglucosaminyltransferase 4, isoenzyme B)", "siRNA no.": 3, "GFP, % of control": 62.4, "viability (ATP), % of control": 77.6, "Call": "inactive"}
{"gene": "Eci2 (enoyl-Coenzyme A delta isomerase 2)", "siRNA no.": 1, "GFP, % of control": 70.4, "viability (ATP), % of control": 64.5, "Call": "inactive"}
{"gene": "Eci2 (enoyl-Coenzyme A delta isomerase 2)", "siRNA no.": 2, "GFP, % of control": 115, "viability (ATP), % of control": 64.2, "Call": "inactive"}
{"gene": "Eci2 (enoyl-Coenzyme A delta isomerase 2)", "siRNA no.": 3, "GFP, % of control": 96.7, "viability (ATP), % of control": 73.9, "Call": "inactive"}
{"gene": "Pfkp (phosphofructokinase, platelet)", "siRNA no.": 1, "GFP, % of control": 81.5, "viability (ATP), % of control": 86.9, "Call": "inactive"}
{"gene": "Catsperd (cation channel sperm associated auxiliary subunit delta)", "siRNA no.": 1, "GFP, % of control": 101, "viability (ATP), % of control": 112, "Call": "inactive"}
{"gene": "Catsperd (cation channel sperm associated auxiliary subunit delta)", "siRNA no.": 2, "GFP, % of control": 100, "viability (ATP), % of control": 95.7, "Call": "inactive"}
{"gene": "Catsperd (cation channel sperm associated auxiliary subunit delta)", "siRNA no.": 3, "GFP, % of control": 114, "viability (ATP), % of control": 116, "Call": "inactive"}
{"gene": "Mrpl10 (mitochondrial ribosomal protein L10)", "siRNA no.": 1, "GFP, % of control": 76.7, "viability (ATP), % of control": 62.4, "Call": "inactive"}
{"gene": "Mrpl10 (mitochondrial ribosomal protein L10)", "siRNA no.": 2, "GFP, % of control": 103, "viability (ATP), % of control": 76.8, "Call": "inactive"}
{"gene": "Mrpl10 (mitochondrial ribosomal protein L10)", "siRNA no.": 3, "GFP, % of control": 65.6, "viability (ATP), % of control": 54.2, "Call": "inactive"}
{"gene": "Veph1 (ventricular zone expressed PH domain-containing 1)", "siRNA no.": 1, "GFP, % of control": 200, "viability (ATP), % of control": 62.8, "Call": "active"}
{"gene": "Veph1 (ventricular zone expressed PH domain-containing 1)", "siRNA no.": 2, "GFP, % of control": 27.1, "viability (ATP), % of control": 16.2, "Call": "inactive"}
{"gene": "Veph1 (ventricular zone expressed PH domain-containing 1)", "siRNA no.": 3, "GFP, % of control": 79.8, "viability (ATP), % of control": 71.1, "Call": "inactive"}
{"gene": "Abcf3 (ATP-binding cassette, sub-family F member 3)", "siRNA no.": 1, "GFP, % of control": 79.8, "viability (ATP), % of control": 107, "Call": "inactive"}
{"gene": "Abcf3 (ATP-binding cassette, sub-family F member 3)", "siRNA no.": 2, "GFP, % of control": 71.9, "viability (ATP), % of control": 55.1, "Call": "inactive"}
{"gene": "Abcf3 (ATP-binding cassette, sub-family F member 3)", "siRNA no.": 3, "GFP, % of control": 54.8, "viability (ATP), % of control": 63.2, "Call": "inactive"}
{"gene": "Arglu1 (arginine and glutamate rich 1)", "siRNA no.": 1, "GFP, % of control": 50.9, "viability (ATP), % of control": 17.8, "Call": "inactive"}
{"gene": "Arglu1 (arginine and glutamate rich 1)", "siRNA no.": 2, "GFP, % of control": 65.4, "viability (ATP), % of control": 68.4, "Call": "inactive"}
{"gene": "Arglu1 (arginine and glutamate rich 1)", "siRNA no.": 3, "GFP, % of control": 98.7, "viability (ATP), % of control": 110, "Call": "inactive"}
{"gene": "Rhbdl1 (rhomboid like 1)", "siRNA no.": 1, "GFP, % of control": 64.3, "viability (ATP), % of control": 77.5, "Call": "inactive"}
{"gene": "Rhbdl1 (rhomboid like 1)", "siRNA no.": 2, "GFP, % of control": 74.5, "viability (ATP), % of control": 25.1, "Call": "inactive"}
{"gene": "Rhbdl1 (rhomboid like 1)", "siRNA no.": 3, "GFP, % of control": 55.8, "viability (ATP), % of control": 58.7, "Call": "inactive"}
{"gene": "H1f9 (H1.9 linker histone)", "siRNA no.": 1, "GFP, % of control": 59.3, "viability (ATP), % of control": 67.2, "Call": "inactive"}
{"gene": "H1f9 (H1.9 linker histone)", "siRNA no.": 2, "GFP, % of control": 51.4, "viability (ATP), % of control": 39.5, "Call": "inactive"}
{"gene": "H1f9 (H1.9 linker histone)", "siRNA no.": 3, "GFP, % of control": 147, "viability (ATP), % of control": 88.4, "Call": "active"}
{"gene": "Dus4l (dihydrouridine synthase 4 like)", "siRNA no.": 1, "GFP, % of control": 51.6, "viability (ATP), % of control": 36.1, "Call": "inactive"}
{"gene": "Dus4l (dihydrouridine synthase 4 like)", "siRNA no.": 2, "GFP, % of control": 74.3, "viability (ATP), % of control": 95.9, "Call": "inactive"}
{"gene": "Dus4l (dihydrouridine synthase 4 like)", "siRNA no.": 3, "GFP, % of control": 47.9, "viability (ATP), % of control": 63.5, "Call": "inactive"}
{"gene": "Pafah1b3", "siRNA no.": 1, "GFP, % of control": 97.1, "viability (ATP), % of control": 88.7, "Call": "inactive"}
{"gene": "Pafah1b3", "siRNA no.": 2, "GFP, % of control": 113, "viability (ATP), % of control": 105, "Call": "inactive"}
{"gene": "Pafah1b3", "siRNA no.": 3, "GFP, % of control": 137, "viability (ATP), % of control": 73.1, "Call": "active"}
{"gene": "Lce3b (late cornified envelope 3B)", "siRNA no.": 1, "GFP, % of control": 43.8, "viability (ATP), % of control": 54, "Call": "inactive"}
{"gene": "Lce3b (late cornified envelope 3B)", "siRNA no.": 2, "GFP, % of control": 129, "viability (ATP), % of control": 76.8, "Call": "active"}
{"gene": "Rnf24 (ring finger protein 24)", "siRNA no.": 1, "GFP, % of control": 73, "viability (ATP), % of control": 83.8, "Call": "inactive"}
{"gene": "Rnf24 (ring finger protein 24)", "siRNA no.": 2, "GFP, % of control": 59.7, "viability (ATP), % of control": 69.4, "Call": "inactive"}
{"gene": "Rnf24 (ring finger protein 24)", "siRNA no.": 3, "GFP, % of control": 61.9, "viability (ATP), % of control": 63.5, "Call": "inactive"}
{"gene": "Dcaf12l2 (DDB1 and CUL4 associated factor 12-like 2)", "siRNA no.": 1, "GFP, % of control": 117, "viability (ATP), % of control": 67.9, "Call": "inactive"}
{"gene": "Dcaf12l2 (DDB1 and CUL4 associated factor 12-like 2)", "siRNA no.": 2, "GFP, % of control": 57.5, "viability (ATP), % of control": 72.5, "Call": "inactive"}
{"gene": "Dcaf12l2 (DDB1 and CUL4 associated factor 12-like 2)", "siRNA no.": 3, "GFP, % of control": 88.1, "viability (ATP), % of control": 98.2, "Call": "inactive"}
{"gene": "Mmadhc", "siRNA no.": 1, "GFP, % of control": 78.1, "viability (ATP), % of control": 85.3, "Call": "inactive"}
{"gene": "Mmadhc", "siRNA no.": 2, "GFP, % of control": 56.7, "viability (ATP), % of control": 83.4, "Call": "inactive"}
{"gene": "Mmadhc", "siRNA no.": 3, "GFP, % of control": 87.9, "viability (ATP), % of control": 88.4, "Call": "inactive"}

Records listed so far with an active call:
{"gene": "Atxn2 (ataxin 2)", "siRNA no.": 1, "GFP, % of control": 140, "viability (ATP), % of control": 120, "Call": "active"}
{"gene": "Veph1 (ventricular zone expressed PH domain-containing 1)", "siRNA no.": 1, "GFP, % of control": 200, "viability (ATP), % of control": 62.8, "Call": "active"}
{"gene": "H1f9 (H1.9 linker histone)", "siRNA no.": 3, "GFP, % of control": 147, "viability (ATP), % of control": 88.4, "Call": "active"}
{"gene": "Pafah1b3", "siRNA no.": 3, "GFP, % of control": 137, "viability (ATP), % of control": 73.1, "Call": "active"}
{"gene": "Lce3b (late cornified envelope 3B)", "siRNA no.": 2, "GFP, % of control": 129, "viability (ATP), % of control": 76.8, "Call": "active"}
